According to PMC11406190:
These are yes or no findings as the source states them, for the method shown. Binding seen in cells or lysates may run through a third protein. Some entries that bind do so weakly or less than the wild type. For some of these results: Tags and fused reporters may be left off the sequences shown.

By UniProt entry, the sequences of proteins in these tests, tags left out.
UniProt Q14587: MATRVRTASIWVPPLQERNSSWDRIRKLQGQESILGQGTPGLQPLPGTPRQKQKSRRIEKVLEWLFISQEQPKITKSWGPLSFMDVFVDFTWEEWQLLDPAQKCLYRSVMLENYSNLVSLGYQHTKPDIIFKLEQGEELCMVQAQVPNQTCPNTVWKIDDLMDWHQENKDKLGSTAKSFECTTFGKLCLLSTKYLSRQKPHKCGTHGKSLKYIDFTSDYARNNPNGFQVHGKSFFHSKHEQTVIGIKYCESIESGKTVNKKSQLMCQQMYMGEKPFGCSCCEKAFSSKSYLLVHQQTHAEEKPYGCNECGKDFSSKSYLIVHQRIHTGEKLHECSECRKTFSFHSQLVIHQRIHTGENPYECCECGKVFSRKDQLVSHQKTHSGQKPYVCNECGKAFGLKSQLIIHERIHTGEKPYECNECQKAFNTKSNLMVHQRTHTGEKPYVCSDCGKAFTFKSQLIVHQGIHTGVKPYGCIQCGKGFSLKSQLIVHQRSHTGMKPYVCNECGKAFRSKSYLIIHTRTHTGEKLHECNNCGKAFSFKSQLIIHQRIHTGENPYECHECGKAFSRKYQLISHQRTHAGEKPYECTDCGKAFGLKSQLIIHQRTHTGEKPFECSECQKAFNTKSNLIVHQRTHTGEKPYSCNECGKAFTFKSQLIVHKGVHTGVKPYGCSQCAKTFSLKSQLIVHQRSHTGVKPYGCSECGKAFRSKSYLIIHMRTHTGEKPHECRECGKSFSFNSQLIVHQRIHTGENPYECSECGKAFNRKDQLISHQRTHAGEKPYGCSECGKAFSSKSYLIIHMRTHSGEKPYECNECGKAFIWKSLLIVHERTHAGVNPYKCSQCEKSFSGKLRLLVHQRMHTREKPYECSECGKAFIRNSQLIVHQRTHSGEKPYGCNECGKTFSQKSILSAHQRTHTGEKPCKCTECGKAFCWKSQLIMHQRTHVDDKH
UniProt Q7Z434: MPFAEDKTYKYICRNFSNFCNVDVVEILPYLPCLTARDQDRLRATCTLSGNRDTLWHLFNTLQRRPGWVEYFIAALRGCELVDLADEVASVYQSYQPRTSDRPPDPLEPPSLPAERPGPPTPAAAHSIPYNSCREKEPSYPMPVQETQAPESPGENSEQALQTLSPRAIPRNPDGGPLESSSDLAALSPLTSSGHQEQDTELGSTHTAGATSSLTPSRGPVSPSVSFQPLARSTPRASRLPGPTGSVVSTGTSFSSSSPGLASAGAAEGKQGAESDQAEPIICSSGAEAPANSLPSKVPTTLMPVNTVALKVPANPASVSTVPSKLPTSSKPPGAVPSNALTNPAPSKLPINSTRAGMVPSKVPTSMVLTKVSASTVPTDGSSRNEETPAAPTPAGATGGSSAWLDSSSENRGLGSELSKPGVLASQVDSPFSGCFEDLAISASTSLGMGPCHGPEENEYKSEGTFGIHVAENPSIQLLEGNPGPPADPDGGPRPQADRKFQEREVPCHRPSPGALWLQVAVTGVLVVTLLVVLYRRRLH

Assays:
[1] = target: Flag-tagged ZNF268a (human) (UniProt Q14587); test: co-IP
[2] = target: HA-ZNF268a (human) (UniProt Q14587); test: co-IP
[3] = target: T1, HA-IRF3 (UniProt Q14653); test: co-IP
T1 sequence: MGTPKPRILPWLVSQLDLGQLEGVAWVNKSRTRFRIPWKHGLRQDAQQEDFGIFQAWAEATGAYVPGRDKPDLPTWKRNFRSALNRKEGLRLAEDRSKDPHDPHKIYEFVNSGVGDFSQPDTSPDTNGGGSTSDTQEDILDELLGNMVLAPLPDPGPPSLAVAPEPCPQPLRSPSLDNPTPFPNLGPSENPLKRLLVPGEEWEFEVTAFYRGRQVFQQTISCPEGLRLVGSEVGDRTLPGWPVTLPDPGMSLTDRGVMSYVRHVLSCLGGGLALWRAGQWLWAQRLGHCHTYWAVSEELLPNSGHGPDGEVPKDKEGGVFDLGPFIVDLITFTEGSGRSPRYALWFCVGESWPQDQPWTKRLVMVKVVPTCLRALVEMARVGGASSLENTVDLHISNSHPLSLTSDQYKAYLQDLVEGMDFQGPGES

[4] = target: HA-MAVS (UniProt Q7Z434); test: co-IP
[5] = target: Flag-tagged ZNF268a (human) (UniProt Q14587); test: co-IP; HEK293T cells transfected with Flag-ZNF268a for 24 h; IP with anti-Flag, immunoblot with antibody to endogenous TBK1
[6] = target: STING, Q86WV6; test: co-IP; ZNF268a WT and KO HEK293T cells transfected with Flag-MAVS, STING or IRF3-2A; endogenous TBK1 blotted in lysates and immunoprecipitants; conditions: remark: other sources report otherwise

B1: HA-tagged TBK1 (enzyme, UniProt Q9UHD2 1-729)
chain: MQSTSNHLWLLSDILGQGATANVFRGRHKKTGDLFAIKVFNNISFLRPVDVQMREFEVLKKLNHKNIVKLFAIEEETTTRHKVLIMEFCPCGSLYTVLEEPSNAYGLPESEFLIVLRDVVGGMNHLRENGIVHRDIKPGNIMRVIGEDGQSVYKLTDFGAARELEDDEQFVSLYGTEEYLHPDMYERAVLRKDHQKKYGATVDLWSIGVTFYHAATGSLPFRPFEGPRRNKEVMYKIITGKPSGAISGVQKAENGPIDWSGDMPVSCSLSRGLQVLLTPVLANILEADQEKCWGFDQFFAETSDILHRMVIHVFSLQQMTAHKIYIHSYNTATIFHELVYKQTKIISSNQELIYEGRRLVLEPGRLAQHFPKTTEENPIFVVSREPLNTIGLIYEKISLPKVHPRYDLDGDASMAKAITGVVCYACRIASTLLLYQELMRKGIRWLIELIKDDYNETVHKKTEVVITLDFCIRNIEKTVKVYEKLMKINLEAAELGEISDIHTKLLRLSSSQGTIETSLQDIDSRLSPGGSLADAWAHQEGTHPKDRNVEKLQVLLNCMTEIYYQFKKDKAERRLAYNEEQIHKFDKQKLYYHATKAMTHFTDECVKKYEAFLNKSEEWIRKMLHLRKQLLSLTNQCFDIEEEVSKYQEYTNELQETLPQKMFTASSGIKHTMTPIYPSSNTLVEMTLGMKKLKEEMEGVVKELAENNHILERFGSLTMDGGLRNVDCL
B1 was tested, and the binding [1] was “binds”.

B2: Flag-SETD4 (enzyme, UniProt Q9NVD3 1-440)
chain: MQKGKGRTSRIRRRKLCGSSESRGVNESHKSEFIELRKWLKARKFQDSNLAPACFPGTGRGLMSQTSLQEGQMIISLPESCLLTTDTVIRSYLGAYITKWKPPPSPLLALCTFLVSEKHAGHRSLWKPYLEILPKAYTCPVCLEPEVVNLLPKSLKAKAEEQRAHVQEFFASSRDFFSSLQPLFAEAVDSIFSYSALLWAWCTVNTRAVYLRPRQRECLSAEPDTCALAPYLDLLNHSPHVQVKAAFNEETHSYEIRTTSRWRKHEEVFICYGPHDNQRLFLEYGFVSVHNPHACVYVSREILVKYLPSTDKQMDKKISILKDHGYIENLTFGWDGPSWRLLTALKLLCLEAEKFTCWKKVLLGEVISDTNEKTSLDIAQKICYYFIEETNAVLQKVSHMKDEKEALINQLTLVESLWTEELKILRASAETLHSLQTAFT
B2 was tested, and the binding [2] was “binds”.

B3: Flag-TBK1 WT (enzyme, UniProt Q9UHD2 1-729)
chain: MQSTSNHLWLLSDILGQGATANVFRGRHKKTGDLFAIKVFNNISFLRPVDVQMREFEVLKKLNHKNIVKLFAIEEETTTRHKVLIMEFCPCGSLYTVLEEPSNAYGLPESEFLIVLRDVVGGMNHLRENGIVHRDIKPGNIMRVIGEDGQSVYKLTDFGAARELEDDEQFVSLYGTEEYLHPDMYERAVLRKDHQKKYGATVDLWSIGVTFYHAATGSLPFRPFEGPRRNKEVMYKIITGKPSGAISGVQKAENGPIDWSGDMPVSCSLSRGLQVLLTPVLANILEADQEKCWGFDQFFAETSDILHRMVIHVFSLQQMTAHKIYIHSYNTATIFHELVYKQTKIISSNQELIYEGRRLVLEPGRLAQHFPKTTEENPIFVVSREPLNTIGLIYEKISLPKVHPRYDLDGDASMAKAITGVVCYACRIASTLLLYQELMRKGIRWLIELIKDDYNETVHKKTEVVITLDFCIRNIEKTVKVYEKLMKINLEAAELGEISDIHTKLLRLSSSQGTIETSLQDIDSRLSPGGSLADAWAHQEGTHPKDRNVEKLQVLLNCMTEIYYQFKKDKAERRLAYNEEQIHKFDKQKLYYHATKAMTHFTDECVKKYEAFLNKSEEWIRKMLHLRKQLLSLTNQCFDIEEEVSKYQEYTNELQETLPQKMFTASSGIKHTMTPIYPSSNTLVEMTLGMKKLKEEMEGVVKELAENNHILERFGSLTMDGGLRNVDCL
B3 was tested, and the binding [3] was “binds”.

B4: Flag-TBK1 K607A (enzyme, UniProt Q9UHD2 1-729)
chain: MQSTSNHLWLLSDILGQGATANVFRGRHKKTGDLFAIKVFNNISFLRPVDVQMREFEVLKKLNHKNIVKLFAIEEETTTRHKVLIMEFCPCGSLYTVLEEPSNAYGLPESEFLIVLRDVVGGMNHLRENGIVHRDIKPGNIMRVIGEDGQSVYKLTDFGAARELEDDEQFVSLYGTEEYLHPDMYERAVLRKDHQKKYGATVDLWSIGVTFYHAATGSLPFRPFEGPRRNKEVMYKIITGKPSGAISGVQKAENGPIDWSGDMPVSCSLSRGLQVLLTPVLANILEADQEKCWGFDQFFAETSDILHRMVIHVFSLQQMTAHKIYIHSYNTATIFHELVYKQTKIISSNQELIYEGRRLVLEPGRLAQHFPKTTEENPIFVVSREPLNTIGLIYEKISLPKVHPRYDLDGDASMAKAITGVVCYACRIASTLLLYQELMRKGIRWLIELIKDDYNETVHKKTEVVITLDFCIRNIEKTVKVYEKLMKINLEAAELGEISDIHTKLLRLSSSQGTIETSLQDIDSRLSPGGSLADAWAHQEGTHPKDRNVEKLQVLLNCMTEIYYQFKKDKAERRLAYNEEQIHKFDKQKLYYHATKAMTHFTDECVAKYEAFLNKSEEWIRKMLHLRKQLLSLTNQCFDIEEEVSKYQEYTNELQETLPQKMFTASSGIKHTMTPIYPSSNTLVEMTLGMKKLKEEMEGVVKELAENNHILERFGSLTMDGGLRNVDCL
For B4, the binding [3] was “binds” and the binding [4] was “binds”.

B5: endogenous TBK1 (enzyme, UniProt Q9UHD2 1-729)
chain: MQSTSNHLWLLSDILGQGATANVFRGRHKKTGDLFAIKVFNNISFLRPVDVQMREFEVLKKLNHKNIVKLFAIEEETTTRHKVLIMEFCPCGSLYTVLEEPSNAYGLPESEFLIVLRDVVGGMNHLRENGIVHRDIKPGNIMRVIGEDGQSVYKLTDFGAARELEDDEQFVSLYGTEEYLHPDMYERAVLRKDHQKKYGATVDLWSIGVTFYHAATGSLPFRPFEGPRRNKEVMYKIITGKPSGAISGVQKAENGPIDWSGDMPVSCSLSRGLQVLLTPVLANILEADQEKCWGFDQFFAETSDILHRMVIHVFSLQQMTAHKIYIHSYNTATIFHELVYKQTKIISSNQELIYEGRRLVLEPGRLAQHFPKTTEENPIFVVSREPLNTIGLIYEKISLPKVHPRYDLDGDASMAKAITGVVCYACRIASTLLLYQELMRKGIRWLIELIKDDYNETVHKKTEVVITLDFCIRNIEKTVKVYEKLMKINLEAAELGEISDIHTKLLRLSSSQGTIETSLQDIDSRLSPGGSLADAWAHQEGTHPKDRNVEKLQVLLNCMTEIYYQFKKDKAERRLAYNEEQIHKFDKQKLYYHATKAMTHFTDECVKKYEAFLNKSEEWIRKMLHLRKQLLSLTNQCFDIEEEVSKYQEYTNELQETLPQKMFTASSGIKHTMTPIYPSSNTLVEMTLGMKKLKEEMEGVVKELAENNHILERFGSLTMDGGLRNVDCL
In the case of B5, the binding [5] is reported as “binds”.

B6: endogenous TBK1, Q9UHD2 1-729 (enzyme)
chain: MQSTSNHLWLLSDILGQGATANVFRGRHKKTGDLFAIKVFNNISFLRPVDVQMREFEVLKKLNHKNIVKLFAIEEETTTRHKVLIMEFCPCGSLYTVLEEPSNAYGLPESEFLIVLRDVVGGMNHLRENGIVHRDIKPGNIMRVIGEDGQSVYKLTDFGAARELEDDEQFVSLYGTEEYLHPDMYERAVLRKDHQKKYGATVDLWSIGVTFYHAATGSLPFRPFEGPRRNKEVMYKIITGKPSGAISGVQKAENGPIDWSGDMPVSCSLSRGLQVLLTPVLANILEADQEKCWGFDQFFAETSDILHRMVIHVFSLQQMTAHKIYIHSYNTATIFHELVYKQTKIISSNQELIYEGRRLVLEPGRLAQHFPKTTEENPIFVVSREPLNTIGLIYEKISLPKVHPRYDLDGDASMAKAITGVVCYACRIASTLLLYQELMRKGIRWLIELIKDDYNETVHKKTEVVITLDFCIRNIEKTVKVYEKLMKINLEAAELGEISDIHTKLLRLSSSQGTIETSLQDIDSRLSPGGSLADAWAHQEGTHPKDRNVEKLQVLLNCMTEIYYQFKKDKAERRLAYNEEQIHKFDKQKLYYHATKAMTHFTDECVKKYEAFLNKSEEWIRKMLHLRKQLLSLTNQCFDIEEEVSKYQEYTNELQETLPQKMFTASSGIKHTMTPIYPSSNTLVEMTLGMKKLKEEMEGVVKELAENNHILERFGSLTMDGGLRNVDCL
In the case of B6, the binding [6] is reported as “binds”.
